Laboratory results: PubChem BioAssay AID2685 (National Center for Advancing Translational Sciences (NCATS), 2010)
The list shows a part of the results. The main result of the screen is listed elsewhere. These columns were measured beside it and carry no call. The list favours compounds with an active or inconclusive main result. Words in brackets tell the shape of the fitted curve; partial curves, single points and poor fits give uncertain potencies.

Assay: qHTS Assay for Lipid Storage Modulators in Drosophila S3 Cells;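 as to cell number change: cells counted by Cell Tracker Red CMTPX staining in the red channel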
Conditions: BODIPY lipid droplet fluorescence, 18-24 h; for cell number change: measured here: cell count max response, cells fed with added oleic acid
In short: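 Drosophila S3 cells loaded with oleic acid (400 uM, as added) and compounds at several concentrations; lipid droplets imaged by 488-nm laser-scanning cytometry, 500–530 nm intensity and object ratio to cell channel. Percent activity normalized to 20 uM Triacsin C.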

[1] = measured here: lipid fluorescence (Fed channel) AC50, cells fed with added oleic acid
[2] = measured here: cell number channel AC50, cells fed with added oleic acid

## COc1ccc(S(=O)(=O)Cc2ccc(C(=O)N3CCN(c4cccc(C)c4C)CC3)o2)cc1
  cell number change: -1.29%
[1]
  AC50: 3.26 µM [rising, single point]

## Cc1cccc(N2CCN(C(=O)c3cccc(N4C(=O)C5C6C=CC(C6)C5C4=O)c3)CC2C)c1 (stereo not drawn)
  cell number change: 57.4%
[2]
  AC50: 14.6 µM [rising, single point]

## O=C(NCCCCC(NC(=O)C1CCCCC1)C(=O)O)c1ccccc1 (stereo not drawn)
  cell number change: -41.5%
[2]
  AC50: 23.1 µM [falling, single point]
[1]
  AC50: 25.9 µM [falling, single point]

## CN(CC(=O)Nc1ccc(OC(F)(F)F)cc1)C(=O)c1ccc(N2CCCC2=O)cc1
  cell number change: 0.907%
[1]
  AC50: 29.1 µM [falling, single point]

## CC(C)C(=O)Nc1cccc(-c2cn3ccsc3n2)c1
  cell number change: 4.14%
[1]
  AC50: 18.4 µM [rising, single point]

## CN1CCN(c2cc(=O)n(C3CCCCC3)c(=O)[nH]2)CC1
  cell number change: -42.4%
[2]
  AC50: 0.517 µM [falling, full curve]
[1]
  AC50: 14.6 µM [falling, partial curve]

## CCOc1ccc(CCNC(=O)COC(=O)c2oc3ccccc3c2COC)cc1OCC
  cell number change: -48.2%
[2]
  AC50: 9.2 µM [falling, partial curve, poor fit]
[1]
  AC50: 0.164 µM [falling, full curve]

## CC(C)c1ccc(S(=O)(=O)N2CCN(CC(O)CN3CCOCC3)CC2)cc1 (stereo not drawn)
  cell number change: -0.774%
[1]
  AC50: 0.116 µM [falling, full curve, poor fit]

## CCOc1ccc(N(C)S(=O)(=O)c2ccc3[nH]cc(C(=O)NCC(OC)OC)c(=O)c3c2)cc1
  cell number change: -29.1%
[1]
  AC50: 29.1 µM [falling, single point]

## Cc1nn(-c2ccccc2)c(N)c1C(O)(C(F)(F)F)C(F)(F)F
  cell number change: 28.7%

## Clc1cccc(-c2nn3c(-c4ccncc4)nnc3s2)c1
  cell number change: -1.25%

## O=C(O)c1cc(S(=O)(=O)N2CCOCC2)c[nH]1
  cell number change: 13.4%

## CCN(CC)S(=O)(=O)c1cc(NC(=O)C2CCN(c3ncnc4sc(C)c(C)c34)CC2)ccc1Cl
  cell number change: -6.5%
[2]
  AC50: 3.26 µM [rising, partial curve, poor fit]

## Cc1csc(SCCn2c(Br)nc3c2c(=O)[nH]c(=O)n3C)n1
  cell number change: 26.1%
[1]
  AC50: 5.17 µM [rising, full curve, poor fit]

## O=C(CC12CC3CC(CC(Br)(C3)C1)C2)Nc1nncs1
  cell number change: 12.6%
[1]
  AC50: 6.51 µM [rising, partial curve]

## CCOc1ccc(NS(=O)(=O)c2ccc(C(=O)NCC3(N(C)C)CCCCC3)cc2)cc1
[2]
  AC50: 4.11 µM [rising, partial curve]
[1]
  AC50: 6.51 µM [rising, single point]

## CCn1cc(/C=N\NC(=O)Cc2ccc(Cl)cc2)cn1
  cell number change: -52%
[2]
  AC50: 29.1 µM [falling, single point]

## O=C(N/N=C/c1cccnc1)c1ccc(Cn2cc([N+](=O)[O-])cn2)o1
  cell number change: 17.2%
[2]
  AC50: 0.116 µM [falling, full curve, poor fit]
[1]
  AC50: 0.116 µM [falling, full curve, poor fit]

## O=C(Nc1sc2c(c1C(=O)O)CCCC2)c1cccs1
  cell number change: 8.68%
[1]
  AC50: 0.58 µM [rising, single point]

## Cc1cc(Oc2ccc(Cl)cc2)nc(SCC(=O)c2ccccc2)n1
  cell number change: 20.7%
[1]
  AC50: 1.64 µM [falling, partial curve]

## COCCNC(=O)Nc1ccc2nc(-c3cccs3)c(-c3cccs3)nc2c1
[2]
  AC50: 4.11 µM [rising, single point]
[1]
  AC50: 20.6 µM [rising, single point]

## c1ccc2c(SCc3cn4ccccc4n3)nncc2c1
  cell number change: 4.97%
[1]
  AC50: 0.82 µM [falling, single point]

## CC(OC(=O)CNC(=O)c1ccc(F)cc1)C(=O)Nc1ccc(S(=O)(=O)N2CCOCC2)cc1 (stereo not drawn)
  cell number change: 1.78%
[1]
  AC50: 0.13 µM [falling, full curve, poor fit]

## CCN(CC(=O)Nc1c(F)cccc1F)C(=O)CSc1nnc(-c2ccco2)n1CC
  cell number change: 10.2%

## NC(=O)C1CCN(c2nc(-c3ccccc3)nc3c2oc2ccccc23)CC1
  cell number change: 45.5%
[2]
  AC50: 2.06 µM [rising, partial curve, poor fit]
[1]
  AC50: 0.82 µM [rising, full curve]

## CCOc1ccc(S(=O)(=O)N(CC)CC(=O)NC2CCS(=O)(=O)C2)cc1 (stereo not drawn)
  cell number change: 16.1%
[2]
  AC50: 2.91 µM [falling, single point]

## CC/C(=N\NC(=O)c1nnn(-c2nonc2N)c1-c1cccs1)c1ccccc1
  cell number change: 14.7%
[1]
  AC50: 0.092 µM [rising, full curve, poor fit]

## O=C(CCC(=O)NNC(=O)c1ccccc1[N+](=O)[O-])NCc1ccccc1
  cell number change: -2.79%
[1]
  AC50: 4.11 µM [falling, partial curve]

## Cc1c(Cl)cccc1NC(=S)/C(=C(\[O-])c1ccc(Cl)s1)[n+]1ccccc1
  cell number change: -33.3%
[2]
  AC50: 2.06 µM [rising, partial curve]

## CCOc1cc(C)nc(N2CCC(C(=O)Nc3ccccc3OCC)CC2)n1
[2]
  AC50: 0.651 µM [rising, full curve, poor fit]
[1]
  AC50: 7.31 µM [rising, single point]

## CC(C)CN(C(=O)CC1CCCC1)c1c(N)n(Cc2ccccc2)c(=O)[nH]c1=O
  cell number change: -24.8%
[1]
  AC50: 0.411 µM [falling, partial curve, poor fit]

## COc1ccc(C(=O)N(C)CC(O)c2ccccc2)cc1OC1CCN(C(C)=O)CC1 (stereo not drawn)
  cell number change: 13.8%
[2]
  AC50: 0.00651 µM [rising, full curve]
[1]
  AC50: 1.46 µM [rising, partial curve, poor fit]

## CCCCCSc1nnc(-c2ccccc2NC(C)=O)c(=O)[nH]1
  cell number change: -4.08%
[2]
  AC50: 5.8 µM [falling, single point]
[1]
  AC50: 5.8 µM [falling, single point]

## CCOC(=O)c1c(CN2CCN(C)CC2)n(C)c2cc(Br)c(OC)cc12
  cell number change: -22.7%
[1]
  AC50: 3.66 µM [rising, full curve]

## CN(Cc1ccccc1)C(=O)c1ccc([N+](=O)[O-])o1
  cell number change: 7.54%
[1]
  AC50: 1.84 µM [falling, full curve, poor fit]
